According to article doi:10.1101/2021.05.03.442108:
These are yes or no findings as the source states them, for the method shown. In cells and extracts the contact can be indirect. A yes stands for co-enrichment or nearness to the bait. Other partners may have been found. Each block holds one binder with its values, some of them ahead of it.

Target: NKS1-GFP (Arabidopsis thaliana) (UniProt F4JR56)
Experiment: affinity purification with mass spectrometry

binding: binds
B1: QUA2 (protein, UniProt Q9C9Q8 1-684)
chain: MSMPLQRGISGVRVSDSSDDLRDSQMKDKTERARSTENNNLTLRFPFGFLFSNQSSSKHGGGGENGFSADPYSARSRHRLMLLFLKISLVLIVVIALAGSFWWTISISTSSRGHVYHNYRRLQEQLVSDLWDIGEISLGPNRWKELEYCNIESENFVPCFNVSENLALGYSNGDENDRFCGPGSKQECLELPPVKYRVPLRWPTGKDIIWHSNVKITAQEVVSSGSITKRMMMMEDDQISFRSASPMSDEVEDYSHQIAEMIGIKKDNFIEAGVRTILDIGCGYGSFGAHLLSKQILTMCIANYEASGSQVQLTLERGLPAMIGSFISKQLPYPSLSFDMLHCLRCGIDWDQKDGLLLVEIDRVLKPGGYFVWTSPLTNPRNKDHLKRWNFVHDFAESICWTLLNQQDETVVWKKTINTKCYSSRKPGVGPSVCTKGHDVESPYYRPLQMCIGGTRSRRWIPIEGRTRWPSRSNMNKTELSLYGLHPEVLGEDAENWKITVREYWSLLSPLIFSDHPKRPGDEDPSPPYNMLRNVLDMNAQFGGLNSALLEARKSVWVMNVVPTAGPNHLPMILDRGFVGVLHNWCEPFPTYPRTYDLVHADNLLSLQTSQPRKTCLLIDIFTEIDRLLRPEGWVIIRDTAQLVEKARETITQLKWEARVIEVESSSEQRLLICQKPFTKRQSI

binding: binds
B2: QUA1 (protein, UniProt Q9LSG3 1-559)
chain: MANHHRLLRGGGSPAIIGGRITLTAFASTIALFLFTLSFFFASDSNDSPDLLLPGVEYSNGVGSRRSMLDIKSDPLKPRLIQIRKQADDHRSLALAYASYARKLKLENSKLVRIFADLSRNYTDLINKPTYRALYDSDGASIEESVLRQFEKEVKERIKMTRQVIAEAKESFDNQLKIQKLKDTIFAVNEQLTNAKKQGAFSSLIAAKSIPKGLHCLAMRLMEERIAHPEKYTDEGKDRPRELEDPNLYHYAIFSDNVIAASVVVNSAVKNAKEPWKHVFHVVTDKMNLGAMQVMFKLKEYKGAHVEVKAVEDYTFLNSSYVPVLKQLESANLQKFYFENKLENATKDTTNMKFRNPKYLSILNHLRFYLPEMYPKLHRILFLDDDVVVQKDLTGLWEIDMDGKVNGAVETCFGSFHRYAQYMNFSHPLIKEKFNPKACAWAYGMNFFDLDAWRREKCTEEYHYWQNLNENRALWKLGTLPPGLITFYSTTKPLDKSWHVLGLGYNPSISMDEIRNAAVVHFNGNMKPWLDIAMNQFRPLWTKHVDYDLEFVQACNFGL
